In patent US20190077867A1 (REYOUNG SUZHOU BIOLOGY SCIENCE AND TECHNOLOGY, published 2019):

Biological target: PD-L2 protein
Experiment: ELISA on coated protein, goat anti-human FAB-HRP, OD450

B1: humanized antibody anti-PD-L1-1 (antibody, V domains shown)
VH: EVQLVQSGAEVKKPGASVKVSCKASGYTFTKYIIHWVRQAPGQGLEWMGWFYPGSGNIRYNEKIKGRVTMTRDTSTSTVYMELSSLRSEDTAVYYCARHGELGGGYFFDYWGQGTTVTVSS
VL: DIQLTQSPSFLSASVGDRVTITCRASSSVSNIHWYQQKPGKAPKPWIYATSNLASGVPSRFSGSGSGTEFTLTISSLQPEDFATYYCQQWSSNPLTFGQGTKLEIKR
notes: Expressed in CHO-KSM4 cells; also called humanized PD-L1 antibody
  binding: no binding (tested: 0.5 µg/mL antibody)

No constants are given. Whether binding was seen depends on the method and setting.
